Measurements reported in PubChem BioAssay AID602196 (INSERM, 2012)
Assay: 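Knock-downs that protect lung cancer cells from cisplatin or sensitise them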. Cells: human A549 lung cancer cells. Reagents: siRNA pair against human genes. Time to read-out: 48 h transfection before cisplatin; time from cisplatin to read-out not stated. Challenge: cisplatin at a dose killing half of control-siRNA cells; exact dose and duration not given. Measurement: 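Shift in cisplatin death relative to control siRNA, from -50 (all cells die) to +50 (no cells die); siRNAs harmful on their own scored 0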. Scale: two-siRNA summed score (-2 to +2): higher = both siRNAs protect from cisplatin killing; -2 means both sensitise. Active means: 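Each siRNA scores 0 if harmful alone by LDH or WST-1, otherwise +1 if it reduces and -1 if it increases cisplatin killing; a gene is active when both siRNAs agree (sum +2 or -2)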. Calls: active = both siRNAs shift cisplatin killing the same way; inactive = no consistent shift, or siRNA harmful alone.
The deposit covers about 23,000 reagents; shown is an unselected part. 455 of all reagents (2%) were called active. 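Active includes both protection and sensitisation; some change values fall well beyond the stated -50 to +50 range.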 Not all columns of the deposit are shown. Not given: the amount of reagent.

LOC389831 — two-siRNA summed score (-2 to +2) = 0; call = inactive
LOC442452 — two-siRNA summed score (-2 to +2) = 0; call = inactive
YIPF6 — two-siRNA summed score (-2 to +2) = 1; call = inactive
TACC3 — two-siRNA summed score (-2 to +2) = 0; call = inactive
GPA33 — two-siRNA summed score (-2 to +2) = 0; call = inactive
GAREM1 — two-siRNA summed score (-2 to +2) = 0; call = inactive
KRCC1 — two-siRNA summed score (-2 to +2) = 0; call = inactive
SUCO — two-siRNA summed score (-2 to +2) = 0; call = inactive
LOC440339 — two-siRNA summed score (-2 to +2) = 0; call = inactive
E2F8 — two-siRNA summed score (-2 to +2) = 1; call = inactive
LOC440631 — two-siRNA summed score (-2 to +2) = 0; call = inactive
ABCB10 — two-siRNA summed score (-2 to +2) = 0; call = inactive
SLC16A11 — two-siRNA summed score (-2 to +2) = 0; call = inactive
HMMR — two-siRNA summed score (-2 to +2) = 0; call = inactive
DGKZ — two-siRNA summed score (-2 to +2) = 1; call = inactive
LOC388439 — two-siRNA summed score (-2 to +2) = 0; call = inactive
CSTF2T — two-siRNA summed score (-2 to +2) = 0; call = inactive
LMX1A — two-siRNA summed score (-2 to +2) = 0; call = inactive
CIMIP2A — two-siRNA summed score (-2 to +2) = 0; call = inactive
LOC285214 — two-siRNA summed score (-2 to +2) = 0; call = inactive
LOC390736 — two-siRNA summed score (-2 to +2) = 0; call = inactive
KRT85 — two-siRNA summed score (-2 to +2) = 1; call = inactive
RNF185 — two-siRNA summed score (-2 to +2) = 1; call = inactive
GYPC — two-siRNA summed score (-2 to +2) = 0; call = inactive
CPVL — two-siRNA summed score (-2 to +2) = -1; call = inactive
TRMT61B — two-siRNA summed score (-2 to +2) = 0; call = inactive
LOC440124 — two-siRNA summed score (-2 to +2) = 0; call = inactive
LOC389288 — two-siRNA summed score (-2 to +2) = 0; call = inactive
ARPP21 — two-siRNA summed score (-2 to +2) = 0; call = inactive
SPTBN1 — two-siRNA summed score (-2 to +2) = 0; call = inactive
GCNA — two-siRNA summed score (-2 to +2) = 0; call = inactive
PCK1 — two-siRNA summed score (-2 to +2) = 0; call = inactive
RSPH1 — two-siRNA summed score (-2 to +2) = 0; call = inactive
NME2 — two-siRNA summed score (-2 to +2) = 1; call = inactive
ETV1 — two-siRNA summed score (-2 to +2) = 2; call = active
LOC390403 — two-siRNA summed score (-2 to +2) = 1; call = inactive
CUL9 — two-siRNA summed score (-2 to +2) = 0; call = inactive
LOC441006 — two-siRNA summed score (-2 to +2) = 0; call = inactive
BABAM1 — two-siRNA summed score (-2 to +2) = 0; call = inactive
DNTTIP2 — two-siRNA summed score (-2 to +2) = 0; call = inactive
